Library screening results

Protein sequences, listed by entry. Tags and fused reporters are not part of them.
UniProt E9BF75, entry or part of it: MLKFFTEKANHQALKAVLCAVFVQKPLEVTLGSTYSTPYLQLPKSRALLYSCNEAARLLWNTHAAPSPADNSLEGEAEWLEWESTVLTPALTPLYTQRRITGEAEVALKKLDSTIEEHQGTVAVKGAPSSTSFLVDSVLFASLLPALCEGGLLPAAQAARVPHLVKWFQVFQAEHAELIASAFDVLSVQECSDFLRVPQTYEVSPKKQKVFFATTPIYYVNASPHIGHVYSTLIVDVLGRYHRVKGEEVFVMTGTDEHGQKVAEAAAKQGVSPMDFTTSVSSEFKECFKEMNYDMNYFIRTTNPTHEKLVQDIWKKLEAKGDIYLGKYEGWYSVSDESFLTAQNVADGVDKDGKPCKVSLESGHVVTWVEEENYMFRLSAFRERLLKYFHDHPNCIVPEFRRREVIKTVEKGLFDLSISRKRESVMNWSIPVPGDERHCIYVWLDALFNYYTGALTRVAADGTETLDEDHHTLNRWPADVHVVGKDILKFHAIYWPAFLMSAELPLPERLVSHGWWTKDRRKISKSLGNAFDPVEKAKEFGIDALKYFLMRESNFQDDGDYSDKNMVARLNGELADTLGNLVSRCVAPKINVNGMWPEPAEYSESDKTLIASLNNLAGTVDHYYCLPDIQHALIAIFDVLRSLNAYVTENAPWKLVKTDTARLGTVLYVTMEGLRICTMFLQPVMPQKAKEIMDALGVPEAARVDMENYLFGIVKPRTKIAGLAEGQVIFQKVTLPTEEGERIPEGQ

The values are deposited in ChEMBL (CHEMBL3988442, “University of Dundee, Small-Polar-MMV Screening Library” (2021)).

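Primary screen of methionyl-tRNA synthetase; the read-out is not stated. Target: Methionyl-tRNA synthetase (putative), Leishmania donovani (UniProt E9BF75). The test concentration is not given. Values are per cent inhibition. About 68,000 compounds were tested under these conditions; 0.035% (about 24) showed 50% or more at least once.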

All values are in %.
How 0% and 100% were set is not recorded. Most values in the screen are low, and negative values occur.
Compounds were drawn at random from those tested, without regard to their results.

For Cc1cc(NC(=O)NC(C)CO)ccc1OCC(F)(F)F (stereo unspecified) the result was 13.77%.
For CS(=O)(=O)Cc1ccc(C(=O)N2CCCC(n3cncn3)C2)o1 (stereo unspecified) the result was -10.17%.
For CN(CC(=O)NCc1cccnc1N1CCCCC1)C(=O)c1cccs1 the result was 15.06%.
For CC(C)Cc1nc(CN(C)CCOc2ccccc2F)no1 the result was 0.7519%.
For CCS(=O)(=O)N1CC(=O)N(CCCc2ccccc2)CC(O)C1 (stereo unspecified) the result was 10.54%.
For O=C1CC(N(C(=O)Cc2csc(-c3ccccc3)n2)C2CC2)C(=O)N1 (stereo unspecified) the result was -11.03%.
For CC(C)c1n[nH]c(C2CN(C(=O)CCc3cscn3)CCO2)n1 (stereo unspecified) the result was 4.737%.
For Cc1noc(C)c1CC(=O)NCc1ccnc(OCC(F)(F)F)c1 the result was 9.836%.
For Cc1nn(C)c(N(C)C)c1CNCCCN(C(C)C)S(C)(=O)=O the result was 18.2%.
For Cc1ccc(CN(CCN(C)C)C(=O)Nc2ccc(C)c(C#N)c2)s1 the result was 6.859%.
For CN1C(=O)C2(CCN(CC3CCC3)C2)c2ccccc21 (stereo unspecified) the result was 0.9524%.

The first 2 entries again:

* Cc1cc(NC(=O)NC(C)CO)ccc1OCC(F)(F)F (stereo unspecified) : 13.77%
* CS(=O)(=O)Cc1ccc(C(=O)N2CCCC(n3cncn3)C2)o1 (stereo unspecified) : -10.17%